In article PMC12582992:
These are yes or no findings as the source states them, for the method shown. Binding seen in cells or lysates may run through a third protein. These calls come from enrichment with a bait or labelling near it, and not all partners need be listed.

How the values were obtained:
[1] = biological target: CNOT3 (human (endogenous in HEK293T)) (UniProt O75175); assay: affinity purification with mass spectrometry; immunoprecipitation with anti-CNOT2, -CNOT3, -CNOT6L or CNOT9 antibodies from HEK293T cells, elution with 1% SDS, LC-MS/MS
[2] = biological target: CNOT2 (human (endogenous in HEK293T)) (UniProt Q9NZN8); assay: as above

binding [1]: binds | binding [2]: binds
B1: RNF219, ring finger protein 219 (protein, UniProt Q5W0B1 1-726)
chain: MAQTVQNVTLSLTLPITCHICLGKVRQPVICINNHVFCSICIDLWLKNNSQCPACRVPITPENPCKEIIGGTSESEPMLSHTVRKHLRKTRLELLHKEYEDEIDCLQKEVEELKSKNLSLESQIKTILDPLTLVQGNQNEDKHLVTDNPSKINPETVAEWKKKLRTANEIYEKVKDDVDKLKEANKKLKLENGGLVRENLRLKAEVDNRSPQKFGRFAVAALQSKVEQYERETNRLKKALERSDKYIEELESQVAQLKNSSEEKEAMNSICQTALSADGKGSKGSEEDVVSKNQGDSARKQPGSSTSSSSHLAKPSSSRLCDTSSARQESTSKADLNCSKNKDLYQEQVEVMLDVTDTSMDTYLEREWGNKPSDCVPYKDEELYDLPAPCTPLSLSCLQLSTPENRESSVVQAGGSKKHSNHLRKLVFDDFCDSSNVSNKDSSEDDISRSENEKKSECFSSPKTGFWDCCSTSYAQNLDFESSEGNTIANSVGEISSKLSEKSGLCLSKRLNSIRSFEMNRTRTSSEASMDAAYLDKISELDSMMSESDNSKSPCNNGFKSLDLDGLSKSSQGSEFLEEPDKLEEKTELNLSKGSLTNDQLENGSEWKPTSFFLLSPSDQEMNEDFSLHSSSCPVTNEIKPPSCLFQTEFSQGILLSSSHRLFEDQRFGSSLFKMSSEMHSLHNHLQSPWSTSFVPEKRNKNVNQSTKRKIQSSLSSASPSKATKS
